According to the supplement of paper PMC4604168 (melanoma cell lines):
This is one part of the list. Repeats are few or missing, and single values can be far off.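 The apoptosis fraction was the count of cleaved-PARP antibody-stained nuclei relative to all DNA-stained nuclei, imaged in 1,536-well plates. Screening doses were set so most cells survived, and baseline and induced cleaved-PARP levels vary greatly across cell lines.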

Key:
Assay in all cases: cleaved PARP positive nuclei fraction relative to DMSO control; melanoma cells; higher = more apoptosis
Settings in all cases: library dose: low library concentration; 72 h
[1] = tested on: 501Mel
[2] = tested on: A101D
[3] = tested on: A2058
[4] = tested on: C32
[5] = tested on: CBRC008 (line from a melanoma biopsy)
[6] = tested on: CBRC014 (line from a melanoma biopsy)
[7] = tested on: CBRC016 (line from a melanoma biopsy)
[8] = tested on: CBRC017 (line from a melanoma biopsy)
[9] = tested on: A375
[10] = tested on: CBRC013 (line from a melanoma biopsy)

| Structure (SMILES) | cleaved PARP positive nuclei fraction [1] [%] | cleaved PARP positive nuclei fraction [2] [%] | cleaved PARP positive nuclei fraction [3] [%] | cleaved PARP positive nuclei fraction [4] [%] | cleaved PARP positive nuclei fraction [5] [%] | cleaved PARP positive nuclei fraction [6] [%] | cleaved PARP positive nuclei fraction [7] [%] | cleaved PARP positive nuclei fraction [8] [%] | cleaved PARP positive nuclei fraction [9] [%] | cleaved PARP positive nuclei fraction [10] [%] |
| --- | --- | --- | --- | --- | --- | --- | --- | --- | --- | --- |
| CCCCCCCCc1ccc(CCC(N)(CO)CO)cc1 [fingolimod] + O=C(Oc1ccc([N+](=O)[O-])cc1)N1CCC(C(O)(c2ccc3c(c2)OCO3)c2ccc3c(c2)OCO3)CC1 [JZL184] (first compound 2 µM, partner dose 1 µM) | 142 | 14.3 | 435 | 95.5 | 92.3 | 112 | 22.9 | 116 | – | – |
| O=C(O)c1ccc2c(c1)nc(Nc1cccc(Cl)c1)c1ccncc12 + Cc1cc(SCc2sc(-c3ccc(C(F)(F)F)c(F)c3)nc2C)ccc1OCC(=O)O [GW0742] (first compound 0.4 µM, partner dose 2 µM) | 52.7 | 32.9 | 48.8 | 101 | 198 | 131 | 125 | 220 | – | – |
| N.N.[Cl][Pt][Cl] [cisplatin] + CCc1ccc(CCOc2ccc(CC3SC(=O)NC3=O)cc2)nc1 [pioglitazone] (first compound 1.6 µM, partner dose 2 µM) | 161 | 63.2 | 76.7 | 78.6 | 4580 | 826 | 3160 | 2670 | – | – |
| Cn1cnc2c(F)c(Nc3ccc(Br)cc3Cl)c(C(=O)NOCCO)cc21 [selumetinib] + O=C(Oc1ccc([N+](=O)[O-])cc1)N1CCC(C(O)(c2ccc3c(c2)OCO3)c2ccc3c(c2)OCO3)CC1 [JZL184] (first compound 0.015 µM, partner dose 1 µM) | 124 | 47.7 | 85.1 | 229 | 138 | 87.8 | 28 | 262 | – | – |
| CNC(=O)c1cc(Oc2ccc(NC(=O)Nc3ccc(Cl)c(C(F)(F)F)c3)cc2)ccn1 [sorafenib] + O=C(Oc1ccc([N+](=O)[O-])cc1)N1CCC(C(O)(c2ccc3c(c2)OCO3)c2ccc3c(c2)OCO3)CC1 [JZL184] (first compound 0.4 µM, partner dose 1 µM) | 77.5 | 42.2 | 97.4 | 179 | 87.2 | 92.2 | 62.3 | 185 | – | – |
| O=C(O)[C@@H]1[O][Sb](=[O])([O][Sb]2(=[O])[O][C@H]([C@H](O)CO)[C@H](O)[C@H](C(=O)O)[O]2)[O][C@H]([C@H](O)CO)[C@@H]1O (stereo partly specified) [stibogluconate] + C/C(O)=C(\C#N)C(=O)Nc1cc(Br)ccc1Br [LFM-A13] (first compound 2 µM, partner dose 2 µM) | 51.8 | 25.5 | 91.9 | 84.2 | 114 | 111 | 20.9 | 93.8 | – | – |
| N.N.[Cl][Pt][Cl] [cisplatin] + NCC(=O)Nc1ccc(-n2nc(C(F)(F)F)cc2-c2ccc3c(ccc4ccccc43)c2)cc1 [OSU03012] (first compound 1.6 µM, partner dose 1 µM) | – | 89.7 | 133 | 43 | 199 | 89.5 | 123 | 98.4 | 102 | 70.9 |
| NC(=O)c1ccc(N(C(N)=O)c2c(F)cccc2F)nc1-c1ccc(F)cc1F + O=C(Oc1ccc([N+](=O)[O-])cc1)N1CCC(C(O)(c2ccc3c(c2)OCO3)c2ccc3c(c2)OCO3)CC1 [JZL184] (first compound 0.4 µM, partner dose 1 µM) | 152 | 14.5 | 93.7 | 85.9 | 33.7 | 107 | 51.5 | 95.2 | – | – |
| CN(c1ncccc1CNc1nc(Nc2ccc3c(c2)CC(=O)N3)ncc1C(F)(F)F)S(C)(=O)=O + Cc1cc(SCc2sc(-c3ccc(C(F)(F)F)c(F)c3)nc2C)ccc1OCC(=O)O [GW0742] (first compound 0.08 µM, partner dose 2 µM) | 103 | 32.2 | 45.1 | 93 | 145 | 196 | 55.8 | 89.5 | – | – |
| CN(c1ncccc1CNc1nc(Nc2ccc3c(c2)CC(=O)N3)ncc1C(F)(F)F)S(C)(=O)=O + C/C(O)=C(\C#N)C(=O)Nc1cc(Br)ccc1Br [LFM-A13] (first compound 0.08 µM, partner dose 2 µM) | 58.4 | 26.1 | 116 | 89.8 | 60.8 | 85.1 | 42.2 | 72.2 | – | – |
| C[C@]12O[C@H](C[C@]1(O)CO)n1c3ccccc3c3c4c(c5c6ccccc6n2c5c31)CNC4=O [Lestaurtinib] + COc1cc2ncnc(Nc3ccc(Oc4ccccc4)cc3)c2cc1OC [SrcI1] (first compound 0.004 µM, partner dose 2 µM) | 69 | 20.7 | 39.7 | 118 | 86.1 | 198 | 61.6 | 68.7 | – | – |
| C[C@]12O[C@H](C[C@]1(O)CO)n1c3ccccc3c3c4c(c5c6ccccc6n2c5c31)CNC4=O [Lestaurtinib] + OCCn1cc(-c2cnc3nnn(Cc4ccc5ncccc5c4)c3n2)cn1 [PF04217903] (first compound 0.004 µM, partner dose 1 µM) | – | 78.2 | 87.3 | 108 | 220 | 73 | 120 | 87.2 | 16.5 | 146 |
| CCCS(=O)(=O)Nc1ccc(F)c(C(=O)c2c[nH]c3ncc(Cl)cc23)c1F + Cc1cc(SCc2sc(-c3ccc(C(F)(F)F)c(F)c3)nc2C)ccc1OCC(=O)O [GW0742] (first compound 0.08 µM, partner dose 2 µM) | 75 | 30.4 | 46.2 | 55.5 | 362 | 113 | 69.9 | 119 | – | – |
| CC[C@]1(O)C[C@H]2CN(CCc3c([nH]c4ccccc34)[C@@](C(=O)OC)(c3cc4c(cc3OC)N(C=O)[C@H]3[C@@](O)(C(=O)OC)[C@H](OC(C)=O)[C@]5(CC)C=CCN6CC[C@]43[C@@H]65)C2)C1 [vincristine] + Cc1cc(SCc2sc(-c3ccc(C(F)(F)F)c(F)c3)nc2C)ccc1OCC(=O)O [GW0742] (first compound 0.0001 µM, partner dose 2 µM) | 33.4 | 45.9 | 321 | 74.9 | 123 | 112 | 98.6 | 118 | – | – |
| C[C@]12O[C@H](C[C@]1(O)CO)n1c3ccccc3c3c4c(c5c6ccccc6n2c5c31)CNC4=O [Lestaurtinib] + CCCCCCCCCCCC1=C(O)C(=O)C=C(O)C1=O [Embelin] (first compound 0.004 µM, partner dose 1.2 µM) | 85.7 | 46.4 | 93.2 | 261 | 143 | 89.8 | 50.4 | 93.8 | – | – |
| C[C@]12O[C@H](C[C@]1(O)CO)n1c3ccccc3c3c4c(c5c6ccccc6n2c5c31)CNC4=O [Lestaurtinib] + O=c1cc(-c2cccc3c2Sc2ccccc2S3)oc(N2CCOCC2)c1 [KU55933] (first compound 0.004 µM, partner dose 1 µM) | 79 | 19.5 | 69.3 | 303 | 58.9 | 97.7 | 34.5 | 87.5 | – | – |
| Cn1cc(C2=C(c3cn(C4CCN(Cc5ccccn5)CC4)c4ccccc34)C(=O)NC2=O)c2ccccc21 [Enzastaurin] + O=C(Oc1ccc([N+](=O)[O-])cc1)N1CCC(C(O)(c2ccc3c(c2)OCO3)c2ccc3c(c2)OCO3)CC1 [JZL184] (first compound 0.8 µM, partner dose 1 µM) | 67.1 | 62 | 71.6 | 83.1 | 126 | 128 | 38.2 | 126 | – | – |
| CCCCCCCCCCCCCCCCCCOP(=O)([O-])OC1CC[N+](C)(C)CC1 [Perifosine] + Cc1cc(SCc2sc(-c3ccc(C(F)(F)F)c(F)c3)nc2C)ccc1OCC(=O)O [GW0742] (first compound 0.4 µM, partner dose 2 µM) | 83.5 | 39.8 | 138 | 49.9 | 43.8 | 123 | 43.2 | 80.9 | – | – |
| CN1CCN(c2ccc3nc(-c4c(N)c5c(F)cccc5[nH]c4=O)[nH]c3c2)CC1 [Dovitinib] + C/C(O)=C(\C#N)C(=O)Nc1cc(Br)ccc1Br [LFM-A13] (first compound 0.1 µM, partner dose 2 µM) | 77.4 | 37.4 | 38.5 | 118 | 48.2 | 95 | 55.7 | 68.1 | – | – |
| N.N.[Cl][Pt][Cl] [cisplatin] + O=C1NC(=O)/C(=C/c2ccc(-c3ccc(F)cc3O)o2)S1 [AS252424] (first compound 1.6 µM, partner dose 1 µM) | 410 | 35 | 38.7 | 72 | 614 | 94.7 | 52.8 | 227 | – | – |
| NC(=O)c1ccc(N(C(N)=O)c2c(F)cccc2F)nc1-c1ccc(F)cc1F + C/C(O)=C(\C#N)C(=O)Nc1cc(Br)ccc1Br [LFM-A13] (first compound 0.4 µM, partner dose 2 µM) | 67.4 | 14.7 | 63.6 | 90.6 | 113 | 119 | 60.5 | 100 | – | – |
| CC(=O)c1c(C)c2cnc(Nc3ccc(N4CCNCC4)cn3)nc2n(C2CCCC2)c1=O [palbociclib] + C/C(O)=C(\C#N)C(=O)Nc1cc(Br)ccc1Br [LFM-A13] (first compound 0.04 µM, partner dose 2 µM) | 195 | 61.3 | 273 | 113 | 81.8 | 116 | 68.3 | 118 | – | – |
| Cn1sc(=O)n(Cc2ccccc2)c1=O + Cc1cc(SCc2sc(-c3ccc(C(F)(F)F)c(F)c3)nc2C)ccc1OCC(=O)O [GW0742] (first compound 0.4 µM, partner dose 2 µM) | 124 | 40 | 107 | 56.4 | 159 | 88 | 72.4 | 105 | – | – |

Quoted from the listing (five entries):

| Structure (SMILES) | cleaved PARP positive nuclei fraction [1] [%] | cleaved PARP positive nuclei fraction [2] [%] | cleaved PARP positive nuclei fraction [3] [%] | cleaved PARP positive nuclei fraction [4] [%] | cleaved PARP positive nuclei fraction [5] [%] | cleaved PARP positive nuclei fraction [6] [%] | cleaved PARP positive nuclei fraction [7] [%] | cleaved PARP positive nuclei fraction [8] [%] | cleaved PARP positive nuclei fraction [9] [%] | cleaved PARP positive nuclei fraction [10] [%] |
| --- | --- | --- | --- | --- | --- | --- | --- | --- | --- | --- |
| O=C(O)c1ccc2c(c1)nc(Nc1cccc(Cl)c1)c1ccncc12 + Cc1cc(SCc2sc(-c3ccc(C(F)(F)F)c(F)c3)nc2C)ccc1OCC(=O)O [GW0742] (first compound 0.4 µM, partner dose 2 µM) | 52.7 | 32.9 | 48.8 | 101 | 198 | 131 | 125 | 220 | – | – |
| N.N.[Cl][Pt][Cl] [cisplatin] + CCc1ccc(CCOc2ccc(CC3SC(=O)NC3=O)cc2)nc1 [pioglitazone] (first compound 1.6 µM, partner dose 2 µM) | 161 | 63.2 | 76.7 | 78.6 | 4580 | 826 | 3160 | 2670 | – | – |
| Cn1cnc2c(F)c(Nc3ccc(Br)cc3Cl)c(C(=O)NOCCO)cc21 [selumetinib] + O=C(Oc1ccc([N+](=O)[O-])cc1)N1CCC(C(O)(c2ccc3c(c2)OCO3)c2ccc3c(c2)OCO3)CC1 [JZL184] (first compound 0.015 µM, partner dose 1 µM) | 124 | 47.7 | 85.1 | 229 | 138 | 87.8 | 28 | 262 | – | – |
| CNC(=O)c1cc(Oc2ccc(NC(=O)Nc3ccc(Cl)c(C(F)(F)F)c3)cc2)ccn1 [sorafenib] + O=C(Oc1ccc([N+](=O)[O-])cc1)N1CCC(C(O)(c2ccc3c(c2)OCO3)c2ccc3c(c2)OCO3)CC1 [JZL184] (first compound 0.4 µM, partner dose 1 µM) | 77.5 | 42.2 | 97.4 | 179 | 87.2 | 92.2 | 62.3 | 185 | – | – |
| O=C(O)[C@@H]1[O][Sb](=[O])([O][Sb]2(=[O])[O][C@H]([C@H](O)CO)[C@H](O)[C@H](C(=O)O)[O]2)[O][C@H]([C@H](O)CO)[C@@H]1O (stereo partly specified) [stibogluconate] + C/C(O)=C(\C#N)C(=O)Nc1cc(Br)ccc1Br [LFM-A13] (first compound 2 µM, partner dose 2 µM) | 51.8 | 25.5 | 91.9 | 84.2 | 114 | 111 | 20.9 | 93.8 | – | – |
